Data as given in PubChem BioAssay AID1259329 (Drosophila RNAi Screening Center, 2017).
Purpose: 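Water reference run beside parallel screens of metal toxicity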. System: Drosophila S2R+ cells. Reagents: long dsRNA against Drosophila genes. Duration: 5 days (4 days knock-down, then 1 day after water). Treatment: water added as vehicle control, no metal, one day before read-out. Measurement: 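After 4 days of knock-down, water was added with no metal, and total ATP was read by luciferase light a day later on two plate copies, as mean z-score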. Scale: mean ATP z-score: higher = more total ATP, likely more viable cells. Call rule: 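a reagent counts as active if its z-score is greater than 1.5 or less than -1.5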.
In all, the deposit lists 418 reagents; below is a part drawn at random. 20 of all reagents (4.8%) count as active. 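All active calls have high ATP; no reagent fell below -1.5.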 A number with no mark means an inactive call. Not given: the amount of reagent, the dose of the treatment.

predicted target	PubChem SID	mean ATP z-score
Pex19	SID104182631	-0.769
Acox3	SID104183043	1.31
Acox3	SID104202893	1.11
or	SID104184121	-0.804
or	SID104207785	0.738
or	SID104214882	-0.82
AP-1sigma	SID104195691	-0.648
AP-1sigma	SID104217890	-0.511
VhaAC45	SID104186850	0.673
VhaAC45	SID104210031	0.158
VhaAC45	SID104217481	0.931
Vha36-3	SID104198407	0.0334
Vha36-3	SID104207180	0.439
CG10194	SID104181817	-0.254
CG9886	SID104180524	-0.139
CG9886	SID104217982	0.442
CG9886	SID104219101	-0.109
ry	SID104196840	0.136
ry	SID104205943	-0.381
ry	SID104218599	-0.449
Pex1	SID104191150	-0.234
Pmvk	SID104181824	-1.08
Pmvk	SID104214427	-1.48
Vha36-2	SID104186086	-0.537
Vha36-2	SID104207782	0.685
VhaPPA1-1	SID104203049	0.587
VhaPPA1-1	SID104210178	-1.08
VhaPPA1-1	SID104210179	-0.976
Lerp	SID104194543	1.63 (active)
Lerp	SID104195822	-0.655
Lerp	SID104195823	0.945
Xpd	SID104206301	0.872
Xpd	SID104213664	1.37
Xpd	SID104218618	-0.353
CG7997	SID104186844	-0.283
CG7997	SID104204250	-1.19
Vps36	SID104189577	0.142
Vps36	SID104214940	-0.526
CG5065	SID104186704	-0.268
Vha100-2	SID104193944	0.772
Vha100-2	SID104207771	-0.146
Mcad	SID104189663	-0.502
Mcad	SID104204524	-0.733
Vps20	SID104184240	-0.233
Vps20	SID104213824	-0.712
Vps20	SID104213825	-1.25
Vps13B	SID104194852	0.543
Vps13B	SID104211745	-1.11
Mvl	SID104196544	0.198
Mvl	SID104217246	0.53
Mvl	SID104218496	0.274
cm	SID104218818	0.928
Pex11c	SID104194469	0.188
Pex14	SID104191546	-0.724
Pex14	SID104206883	0.352
Agxt	SID104198510	-0.498
Agxt	SID104204659	-0.947
Pex12	SID104180414	0.967
Pex12	SID104205693	0.0271
Tsp39D	SID104182891	-0.771
Tsp39D	SID104217624	-0.107
Vps24	SID104192124	-0.384
Vps24	SID104207768	1
Vps24	SID104211993	0.062
CG6638	SID104190472	-0.264
CG6638	SID104203096	-1.05
JhI-21	SID104181953	0.792
JhI-21	SID104207725	-0.063
pic	SID104196431	0.378
pic	SID104209549	-0.299
pic	SID104209550	-0.431
CG1827	SID104186511	-0.441
AP-1gamma	SID104198225	0.999
AP-1gamma	SID104213979	-1.11
Ids	SID104188014	-0.762
VhaSFD	SID104183263	-0.106
VhaSFD	SID104210180	-1.33
VhaSFD	SID104210181	-0.821
LManIII	SID104183013	2.09 (active)
LManIII	SID104207545	-1.14
LManIII	SID104213178	-0.443
CG32191	SID104190314	0.186
Gnptab	SID104186849	0.455
Sod3	SID104187116	-0.189
Sod3	SID104204766	-1.1
Npc2f	SID104195772	1.8 (active)
CG13084	SID104181980	-0.566
Gga	SID104198052	-0.78
Gga	SID104206305	0.828

Entries above whose target name begins with O or o (3):
predicted target	PubChem SID	mean ATP z-score
or	SID104184121	-0.804
or	SID104207785	0.738
or	SID104214882	-0.82
